# Some of the results follow. Further columns of the screen follow, without active or inactive calls. Compounds called inactive in the main read-out are mostly missing here. Potencies come from curve fits of mixed quality, noted in brackets.
# Experiment: qHTS Assay for Lipid Storage Modulators in Drosophila S3 Cells;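 on cell number change: cells counted by Cell Tracker Red CMTPX staining in the red channel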
# Conditions: BODIPY lipid droplet fluorescence, 18-24 h; for cell number change: measured here: cell count max response, cells fed with added oleic acid
# Summary of the method: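 Laser-scanning cytometry quantifies lipid droplet accumulation (500–530 nm total intensity; droplet/cell object ratio) in oleic acid-fed (400 uM added) Drosophila S3 cells treated with a concentration series. 20 uM Triacsin C defined 100% inhibition.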
# [1] = measured here: lipid fluorescence (Fed channel) AC50, cells fed with added oleic acid
# [2] = measured here: cell number channel AC50, cells fed with added oleic acid
Compound,cell number change [%],AC50 [1],AC50 [2]
C=CCN1C(=O)C(C)(C)N(C(=O)c2cccc([N+](=O)[O-])c2)c2ccccc21,-15.7,"6.51 µM [rising, single point]",
O=C(c1ccccc1[N+](=O)[O-])N1N=C(c2ccccc2)CC1(O)C(F)(F)F (configuration not stated),-9.34,"23.1 µM [falling, single point]",
Cc1ccc(NC(=O)CCS(=O)(=O)c2ccccc2)cc1S(=O)(=O)N1CCCCCC1,-31.5,"18.4 µM [falling, partial curve]","16.4 µM [falling, partial curve]"
Fc1cccc(NC(=S)NNc2c3ccccc3nc3ccccc23)c1,-82.7,"18.4 µM [falling, single point]","20.6 µM [falling, single point]"
O=C(/C=C/Nc1ccc(Br)cc1F)c1ccccc1,,"6.51 µM [rising, single point]","6.51 µM [falling, single point]"
Cc1cc(Oc2ccc(C#N)cc2)nc(NCc2ccccc2)n1,-10.9,,
COc1ccc(N2CCN(C(=O)COC(=O)c3ccccc3OCc3ccc(F)cc3)CC2)cc1,-0.0566,"9.2 µM [falling, partial curve, poor fit]",
CCCc1ccc(C(C)NC(=S)NC2CCCCC2)cc1 (configuration not stated),-59.7,"29.1 µM [falling, single point]","18.4 µM [falling, single point]"
NNC(=O)c1sccc1OCc1ccc(Cl)cc1Cl,10.6,"0.103 µM [rising, full curve, poor fit]",
Cc1ccc(NC(=O)C2Cc3ccccc3CN2C(=O)c2ccco2)cc1S(=O)(=O)N(C)C (configuration not stated),-1.68,"6.51 µM [rising, single point]",
Cc1ccccc1CNC(=O)c1ccc(CSCc2ccccc2)cc1,,,"6.51 µM [rising, single point]"
COc1cccc(C2CC(c3cccc(NS(C)(=O)=O)c3)=NN2C(=O)c2ccccc2)c1OC (configuration not stated),-32.6,,"4.11 µM [rising, single point]"
N#Cc1ccc(-c2ccc(OCC(O)CN3CCOCC3)cc2)cc1 (configuration not stated),-31.5,"29.1 µM [falling, single point]","25.9 µM [falling, single point]"
COc1cccc(NC(=O)c2cccnc2)c1,,"0.82 µM [falling, full curve, poor fit]",
COc1cccc(Nc2nnc(SCC(=O)N3CC(C)OC(C)C3)s2)c1 (configuration not stated),-54,"29.1 µM [falling, single point]","20.6 µM [falling, partial curve, poor fit]"
CC(C)C(OC(=O)CN1C(=O)COc2ccccc21)C(=O)NC1CCCCC1 (configuration not stated),7.39,"29.1 µM [falling, single point]",
CCOc1ccc(C/C(N)=N/n2cnnc2)cc1,-16,,
O=S(=O)(NCc1ccccc1)c1ccc(S(=O)(=O)N(Cc2ccccn2)Cc2ccco2)cc1,-24.4,"6.51 µM [rising, single point]",
CCc1cc(=O)oc2c(CN3CCCC3)c(O)c(Cl)cc12,-12.3,"0.651 µM [falling, single point]","0.00651 µM [falling, full curve, poor fit]"
CCn1c(=O)c2c3c(sc2n2c(=S)[nH]nc12)CCC3,-28.2,"16.4 µM [falling, single point]",

Compound,cell number change [%],AC50 [1],AC50 [2]
O=C(NCCN1C(=O)S/C(=C\c2ccc(Cl)cc2)C1=O)c1ccc(F)c(S(=O)(=O)N2CCOCC2)c1,12.8,,
COc1ccc(N2C(=O)C(Cl)=C(Nc3ccccc3OC)C2=O)cc1,,"6.51 µM [rising, single point]","0.58 µM [rising, single point]"
O=C(O)CCc1ccc(-c2cccs2)o1,-31.8,"5.17 µM [falling, partial curve]","29.1 µM [falling, single point]"
COC(=O)c1ccc(NS(=O)(=O)c2ccc(-c3cc(C)no3)s2)cc1,6.27,,
CCCC1=Nc2cc(C(=O)NCCCN3CCOCC3)ccc2Sc2ccccc21,16,"20.6 µM [rising, single point]",
Cc1ccc(N=Nc2cc(C)ccc2N)cc1,-72.1,,
Cc1occc1C(=O)NC1CCCCCC1,11.8,,
Cc1[nH]n(-c2ccccc2)c(=O)c1C=Nc1cccc2cccnc12,2.28,"0.092 µM [rising, full curve, poor fit]",
Cc1ccc(S(=O)(=O)C2(C(=O)O)CCCC2)cc1C,-21.4,"23.1 µM [falling, partial curve, poor fit]",
CCOc1ccc(C2/C(=C(\O)c3ccc4c(c3)OCCO4)C(=O)C(=O)N2CCCN2CCOCC2)cc1OC (configuration not stated),0.472,"29.1 µM [rising, single point]",
CCc1ccc(CNC(=O)CCC(=O)N2Cc3cccc(OC)c3Oc3ncccc32)cc1,5.6,"29.1 µM [rising, single point]",
CCOC(=O)N(CC)OC(=O)Nc1ccc(Cl)cc1,-42.6,"4.11 µM [falling, full curve]","3.26 µM [falling, full curve]"
CC(C)Cc1ccc(S(=O)(=O)N2CCN(c3ccccn3)CC2)cc1,40.5,"1.16 µM [rising, full curve]","29.1 µM [rising, single point]"
N#Cc1sc(NCc2ccccc2)nc1Cl,3.85,"0.651 µM [falling, single point]","0.651 µM [falling, single point]"
COCCN(C(=O)COC(=O)c1ccccc1Oc1ccccc1)c1c(N)n(Cc2ccccc2)c(=O)[nH]c1=O,-7.08,"29.1 µM [falling, single point]",
CCOc1cc(C(=O)N(C)CC(=O)Nc2cccc(F)c2)ccc1OCC(=O)N1CCOCC1,-25,,"0.366 µM [rising, single point]"
Cc1ccc([C@@H]2CC=C(C(=O)O)CN2S(=O)(=O)c2ccc(C)cc2)cc1,5.61,"0.82 µM [falling, full curve]","0.82 µM [falling, full curve, poor fit]"
Cc1cc2ncn(-c3ncnc4sc(C)c(C)c34)c2cc1C,-18,,
COc1ccc(NC(=S)N2CCN(C/C=C/c3ccccc3)CC2)cc1OC,-13.2,,"4.61 µM [rising, single point]"
CCOC(=O)C1CCN(C(=O)c2cc3c(ccc4ccccc43)o2)CC1,12.7,,

# Ordered by heavy-atom count (low to high): part of the list above
Compound,cell number change [%],AC50 [1],AC50 [2]
Cc1cc2ncn(-c3ncnc4sc(C)c(C)c34)c2cc1C,-18,,
COc1ccc(NC(=S)N2CCN(C/C=C/c3ccccc3)CC2)cc1OC,-13.2,,"4.61 µM [rising, single point]"
CCOc1ccc(C2/C(=C(\O)c3ccc4c(c3)OCCO4)C(=O)C(=O)N2CCCN2CCOCC2)cc1OC (configuration not stated),0.472,"29.1 µM [rising, single point]",

# Additional compounds follow:

Compound,cell number change [%],AC50 [1],AC50 [2]
COc1ccc(NC(=S)NCC(O)c2ccccc2)c(OC)c1 (configuration not stated),,"16.4 µM [rising, single point]",
CCOC(=O)c1c(C)[nH]c(C)c1C(=O)COC(=O)c1cccc(C)c1O,3.65,,
N#Cc1ccc(C(=O)Nc2nc(SCc3ccc(Cl)cc3)n[nH]2)cc1,114,,
C#CCOc1ccc(C2C3=C(CC(C)(C)CC3=O)N(CC(=O)O)C3=C2C(=O)CC(C)(C)C3)cc1OC,,"5.17 µM [falling, single point]",
Cc1ccc(N2CC(C(=O)Nc3nc4ccc(S(C)(=O)=O)cc4s3)CC2=O)cc1C (configuration not stated),14.7,"29.1 µM [rising, single point]",
Cn1c(=O)c2sccc2n(CC(=O)NCCC2=CCCCC2)c1=O,8.12,,
O=C(CSc1nnc(COc2cccc3cccnc23)o1)N1CCCC1,5.94,"7.31 µM [rising, single point]",
CC1=CCC2C(=O)N(c3ccc(C(=O)N4CCCCCC4)cc3)C(=O)C2C1 (configuration not stated),-89.8,"6.51 µM [falling, single point]","25.9 µM [falling, partial curve]"
CCOC(=O)C1CCN(Cc2cc(Cl)c3ccccc3c2O)CC1,2.1,"18.4 µM [falling, partial curve, poor fit]",
Cc1occc1C(=O)N1CCN(S(=O)(=O)c2ccccc2)CC1,8.9,"6.51 µM [falling, single point]",
CCOCC(=O)N1CCN(c2cccc(Cl)c2)CC1,28.7,,
O=C(Cn1ccc([N+](=O)[O-])n1)NCc1cccs1,38.3,"3.26 µM [rising, full curve]",
CC(C)OC(=O)c1cc(-c2ccc(C=O)o2)ccc1Cl,0.407,"0.651 µM [rising, single point]",
CCC1(C)Cc2ccccc2-c2nc3n(c(=O)c21)CCS3 (configuration not stated),-83.3,,"29.1 µM [falling, single point]"
Cc1ccc(C)c(Sc2ccc(NC(=O)CCN3C(=O)NC4(CCCC4)C3=O)cc2)c1,-52.3,,"18.4 µM [falling, single point]"
CCNc1c(NS(=O)(=O)c2ccc(F)c(Cl)c2)c(=O)oc2ccccc12,13.9,,
C=CCc1cccc(/C=N/NC(=O)CCC(=O)Nc2ccc(C)cc2)c1O,52.3,"6.51 µM [rising, single point]","25.9 µM [rising, single point]"
O=C(c1cc2ccccc2oc1=O)N1CCN(C(=O)C2CCCO2)CC1 (configuration not stated),-0.52,"25.9 µM [falling, partial curve, poor fit]",
Cc1ccc(C2NC(=S)NC3=C2C(=O)CCC3)cc1 (configuration not stated),33,"29.1 µM [rising, single point]","29.1 µM [rising, single point]"
COc1ccc(S(=O)(=O)Nc2ccc3c(c2)OCCO3)cc1OC,-2.76,"0.103 µM [rising, full curve, poor fit]",

# — PubChem BioAssay AID2685 (National Center for Advancing Translational Sciences (NCATS), 2010)
